For test [1], the target named is T1, FLAG-tagged NPAT C-region (1,031–1,427) (UniProt Q14207).
T1 sequence: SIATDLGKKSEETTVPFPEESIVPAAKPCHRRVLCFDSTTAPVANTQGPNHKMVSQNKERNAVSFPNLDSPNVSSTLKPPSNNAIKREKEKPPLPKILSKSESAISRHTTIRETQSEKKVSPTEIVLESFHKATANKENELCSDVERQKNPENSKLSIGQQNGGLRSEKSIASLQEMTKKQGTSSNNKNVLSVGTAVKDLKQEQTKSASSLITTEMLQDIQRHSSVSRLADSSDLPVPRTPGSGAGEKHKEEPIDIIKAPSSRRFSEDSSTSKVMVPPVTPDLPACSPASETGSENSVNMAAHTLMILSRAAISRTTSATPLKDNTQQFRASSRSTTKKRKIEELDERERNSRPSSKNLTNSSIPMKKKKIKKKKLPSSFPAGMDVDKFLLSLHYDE
Nature of the test: co-IP; as a1, the pair co-expressed in the presence or absence of a third protein (KPNA3 or a KPNA3 fragment) to test whether it lowers the co-precipitate.

The chains behind the UniProt entries cited, without tags or fusion partners. Where a name states a change or a piece, a line headed by the entry shows the natural chain unless it says otherwise.
UniProt O00505: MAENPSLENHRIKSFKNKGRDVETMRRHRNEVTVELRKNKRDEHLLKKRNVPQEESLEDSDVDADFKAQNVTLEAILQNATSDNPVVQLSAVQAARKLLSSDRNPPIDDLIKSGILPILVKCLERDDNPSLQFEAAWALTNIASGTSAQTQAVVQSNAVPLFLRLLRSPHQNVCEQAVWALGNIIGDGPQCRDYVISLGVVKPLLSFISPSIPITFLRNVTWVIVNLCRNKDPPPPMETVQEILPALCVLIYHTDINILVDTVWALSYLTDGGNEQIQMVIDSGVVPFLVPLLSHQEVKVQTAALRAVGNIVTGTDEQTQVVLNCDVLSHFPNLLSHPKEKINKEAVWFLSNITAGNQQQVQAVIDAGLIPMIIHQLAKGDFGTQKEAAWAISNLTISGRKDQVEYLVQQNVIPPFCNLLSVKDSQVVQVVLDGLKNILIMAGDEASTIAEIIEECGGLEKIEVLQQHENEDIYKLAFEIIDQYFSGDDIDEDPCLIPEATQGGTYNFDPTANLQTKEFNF

Test [2] concerns the target FLAG-tagged KPNA3 ARM 3–5. As to the kind of experiment: co-IP; two tagged proteins co-expressed in transfected cells (293T); lysis in 150 mM NaCl, 0.25 mM EDTA, 50 mM Tris pH 7.3, 1% sodium deoxycholate, 1% Triton X-100; IP with anti-FLAG M2 beads or protein A/G agarose resin; western blot. (In general: In western blotting, separated proteins are transferred to a membrane and probed.)

The target of test [3] is FLAG-tagged KPNA3 ΔARM3–5 mutant (UniProt O00505). The test is described as above.

Results are given in words; binding and its absence hold for the method and conditions named. In cells and extracts the contact can be indirect. For some assays here: Binding can be weak; no strength is given. Where a sequence is shown, tags or fusion partners need not be part of it.

Turning to “GFP-ARM 3–5 fusion protein (domain or fragment)”, in test [1], the binding result is on record as “binds”.
As to Myc-ARM 1–5 (domain or fragment), the binding entry in test [1] is reported as “binds”.
Myc-ARM 3–10 (domain or fragment): the binding entry in test [1] is on record as “binds”.

B1: GFP-NPAT C-region (domain or fragment, UniProt Q14207 1031-1427)
chain: SIATDLGKKSEETTVPFPEESIVPAAKPCHRRVLCFDSTTAPVANTQGPNHKMVSQNKERNAVSFPNLDSPNVSSTLKPPSNNAIKREKEKPPLPKILSKSESAISRHTTIRETQSEKKVSPTEIVLESFHKATANKENELCSDVERQKNPENSKLSIGQQNGGLRSEKSIASLQEMTKKQGTSSNNKNVLSVGTAVKDLKQEQTKSASSLITTEMLQDIQRHSSVSRLADSSDLPVPRTPGSGAGEKHKEEPIDIIKAPSSRRFSEDSSTSKVMVPPVTPDLPACSPASETGSENSVNMAAHTLMILSRAAISRTTSATPLKDNTQQFRASSRSTTKKRKIEELDERERNSRPSSKNLTNSSIPMKKKKIKKKKLPSSFPAGMDVDKFLLSLHYDE
For B1, the binding entry is listed as “binds” in test [2] and “no binding” in test [3].

The values are drawn from publication PMC11613458.
